The values below come from PubChem BioAssay AID248 (DTP/NCI, 2004).

For this experiment, the system named is L1210 leukemia ip in BDF1 mice, survival T/C. As to the kind of experiment: NCI In Vivo Anticancer Drug Screen. Data for tumor model L1210 Leukemia (intraperitoneal) in B6D2F1 (BDF1) mice. Conditions: T/C endpoint: mean survival time; dose: 400.0 mg/kg/injection; schedule: Q04DX003 (ip); vehicle: saline with Tween-80; higher T/C = longer survival.

The list is a part of this screen's results and no random one: it gathers tests that were run many times, whatever their T/C, doses with no T/C, and many T/C values between a quarter and a half above the control. Further doses and runs are listed elsewhere. T/C gives the treated animals as a percentage of the vehicle group. Some entries give survivors of the animals treated and no T/C: the source files T/C as zero there, which appears to mark a toxic dose or a test without result, not a measured value. Counts of survivors are from the toxicity check (mostly the fifth day) where no day follows; animals may have died later. Schedules are NCI's codes, read here as Q, the interval in days (D) or hours (H), X, the number of doses.

As for `OCCN1CCC2(CC1)SSC1(CCN(CCO)CC1)S2`, the survivor count is reported as 2 of 6.
